Measurements reported in PubChem BioAssay AID1259425 (University of Nebraska Medical Center, 2018).
The whole screen tested about 14,000 reagents; shown is a part drawn at random. The numbers tell different reagents against one gene apart. The record does not give: the time to read-out.

Screen: 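Seek colon cancer weak points whose silencing resembles KSR1 loss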 (primary screen)
Cell system: HCT116 human colon cancer cells
Reagent: siRNA pool against human genes, 50 nM siRNA
Measured: 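mRNA of six signature genes measured together by branched-DNA assay after 50 nM siRNA pool, blank removed, divided by geometric mean of two housekeeping genes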
Scale: BNIP3L mRNA: higher = more BNIP3L transcript after knockdown; NDRG1 mRNA: higher = more NDRG1 transcript after knockdown; BNIP3 mRNA: higher = more BNIP3 transcript after knockdown; ALDOC mRNA: higher = more ALDOC transcript after knockdown; ACSL5 mRNA: higher = more ACSL5 transcript after knockdown

target gene	pool no.	BNIP3L mRNA, set 1	NDRG1 mRNA, set 1	BNIP3 mRNA, set 1	ALDOC mRNA, set 1	ACSL5 mRNA, set 1
UBE2N	1	0.0588	0.249	0.218	0.0146	0.139
TRERF1	1	0.0903	0.355	0.389	0.0417	0.284
MNX1	1	0.132	0.285	0.428	0.012	0.325
PRG2	1	0.0548	0.156	0.216	0.0136	0.17
LUC7L3	1	0.205	0.497	0.399	0.0197	0.115
LUC7L3	2	0.0911	0.152	0.228	0.0139	0.141
HOXC4	1	0.0518	0.214	0.326	0.0111	0.155
GFER	1	0.192	0.409	0.555	0.0227	0.111
MAP3K21	1	0.0956	0.179	0.361	0.00851	0.188
RFFL	1	0.0979	0.23	0.224	0.0342	0.136
CTTNBP2NL	1	0.0939	0.182	0.14	0.0349	0.0712
PAMR1	1	0.115	0.197	0.443	0.0318	0.136
CENPI	1	0.0774	0.148	0.259	0.0486	0.228
KCNK13	1	0.136	0.549	0.277	0.033	0.201
MBTPS2	1	0.0408	0.24	0.209	0.0181	0.184
VGLL1	1	0.12	0.475	0.277	0.0274	0.212
POU4F1	1	0.0686	0.234	0.317	0.0119	0.135
HMGCS2	1	0.0499	0.429	0.172	0.00798	0.268
EPHX2	1	0.129	0.31	0.374	0.0226	0.131
NKX2-2	1	0.187	0.186	0.406	0.0407	0.495
AOX1	1	0.0629	0.161	0.248	0.0184	0.18
RHOG	1	0.145	0.357	0.223	0.0606	0.202
SULT1A1	1	0.14	0.456	0.458	0.0529	0.309
TOP2A	1	0.101	0.299	0.253	0.041	0.172
ZNF552	1	0.116	0.146	0.266	0.0866	0.166
G6PD	1	0.0617	0.205	0.285	0.0315	0.377
ULK4	1	0.163	0.106	0.297	0.0128	0.401
MGAT5	1	0.103	0.159	0.251	0.0179	0.124
BPNT1	1	0.0739	0.248	0.19	0.0169	0.193
PIP4K2C	1	0.193	0.0938	0.324	0.0167	0.277
ACTN2	1	0.121	0.14	0.283	0.0273	0.101
ROGDI	1	0.0636	0.513	0.263	0.0145	0.211
COPB1	1	0.317	1.02	0.524	0.0457	0.242
VPS33A	1	0.0909	0.112	0.251	0.00911	0.214
IDI1	1	0.112	0.141	0.326	0.0226	0.164
CCN4	1	0.392	0.649	0.339	0.0211	0.607
HOXC12	1	0.0739	0.223	0.244	0.0156	0.161
AKR7A3	1	0.0709	0.186	0.333	-0.00408	0.232
POLD1	1	0.0731	0.095	0.201	0.018	0.16
SLIRP	1	0.148	0.409	0.285	0.0293	0.319
SSC4D	1	0.106	0.218	0.362	0.024	0.129
CSMD1	1	0.0732	0.313	0.252	0.0134	0.238
CHST15	1	0.148	0.183	0.25	0.0229	0.142
LPL	1	0.125	0.102	0.423	0.0365	0.512
GPSM3	1	0.143	0.231	0.394	0.023	0.182
FHL2	1	0.102	0.178	0.234	0.022	0.113
KRT82	1	0.0449	0.283	0.216	0.0163	0.285
SLC17A3	1	0.104	0.314	0.209	0.0303	0.249
SOD2	1	0.0752	0.0965	0.21	0.0196	0.123
NUP62CL	1	0.103	0.106	0.285	0.0395	0.119
RBMS3	1	0.0948	0.0889	0.329	0.0176	0.163
TMEM79	1	0.0973	0.136	0.347	0.0484	0.638
MSTO1	1	0.0734	0.207	0.27	0.00672	0.12
FYCO1	1	0.17	0.056	0.226	0.018	0.113
KLK15	1	0.0634	0.61	0.203	0.00533	0.121
GAGE5	1	0.128	0.348	0.251	0.0361	0.214
SCN4A	1	0.149	0.22	0.349	0.0163	0.162
CTCF	1	0.0896	0.287	0.273	0.000518	0.294
ZFPL1	1	0.221	0.333	0.235	0.0289	0.163
NADSYN1	1	0.145	0.158	0.226	0.078	0.218
RGS19	1	0.228	0.19	0.324	0.0406	0.121
CYTH2	1	0.138	0.132	0.41	0.048	0.197
EIF4E2	1	0.14	0.137	0.239	0.0521	0.222
